One series is described as follows: peptide synthesis. The conditions noted are these: coupling step.
Series [1] is described as follows: general procedure: Fmoc solid-phase peptide synthesis; Rink Amide; HBTU/HOBT; DIC/HOBT. Particulars: whole synthesis, scale 1 mmole.
The nature of series [2]: general procedure: Fmoc solid-phase peptide synthesis; Cl-TrT-Resin; HBTU/HOBT; DIC/HOBT. The conditions noted are these: whole synthesis, scale 5 mmol.

*: point of attachment. Fmoc = O=C(OCC1c2ccccc2-c2ccccc21)*; Boc = CC(C)(C)OC(=O)*; OtBu = CC(C)(C)O*; tBu = CC(C)(C)*

These results are taken from patent publication US20060205669A1 (The Regents of the University of California, priority 2004, published 2006).

“Fmoc-Y(But)-D(But)-K(Boc)-V-A-E(But)-K(Boc)-F-K(Boc)-E(But)-F-Co-NH2”: the step yield result in “peptide synthesis” is “Yield was 50%”.
Ac-DWFKAFYDKVAEKFKEAF-NH2: the values for the crude yield in series [1] (run 1), in series [1] (run 2) and in series [1] (run 3) were 86%, 86% and 43%, respectively. Also, the isolated yield in series [1] (run 1) is reported as 25%; in series [1] (run 2), 22.5%; in series [1] (run 3), 10%.
Fmoc-Y(tBu)D(OtBu)K(Boc)VAE(OtBu)-OH gave a crude yield in series [2] of 36%.
For Ac-D(OtBu)WFK(Boc)AF-OH, the crude yield in series [2] worked out at 32%.
